*: point of attachment. Cbz = O=C(OCc1ccccc1)*; Boc = CC(C)(C)OC(=O)*
Experiment: general procedure: solution-phase peptide synthesis; EDC/HOBt

| Substance | step yield (coupling step) | difficulty met (late stage modification step) |
| --- | --- | --- |
| Boc-K(Cbz)K(Boc)K(Boc)K(Cbz)-OMe | 59% yield |  |
| (Boc)Lys(Z)-His(Boc)-Lys(Boc)-Lys(Boc)-Lys-OMe |  | the compound had lost some Boc protecting group |

— patent publication US9238697B2 (The Regents of the University of California, priority 2005, dated 2016)
